Assay results taken from publication PMC2698154.
No constants are given. Whether binding was seen depends on the method and setting. In cells and extracts the contact can be indirect. Some entries that bind do so weakly or less than the wild type.

Protein sequences, listed by entry. Tags and fused reporters are not part of them.
UniProt P31000: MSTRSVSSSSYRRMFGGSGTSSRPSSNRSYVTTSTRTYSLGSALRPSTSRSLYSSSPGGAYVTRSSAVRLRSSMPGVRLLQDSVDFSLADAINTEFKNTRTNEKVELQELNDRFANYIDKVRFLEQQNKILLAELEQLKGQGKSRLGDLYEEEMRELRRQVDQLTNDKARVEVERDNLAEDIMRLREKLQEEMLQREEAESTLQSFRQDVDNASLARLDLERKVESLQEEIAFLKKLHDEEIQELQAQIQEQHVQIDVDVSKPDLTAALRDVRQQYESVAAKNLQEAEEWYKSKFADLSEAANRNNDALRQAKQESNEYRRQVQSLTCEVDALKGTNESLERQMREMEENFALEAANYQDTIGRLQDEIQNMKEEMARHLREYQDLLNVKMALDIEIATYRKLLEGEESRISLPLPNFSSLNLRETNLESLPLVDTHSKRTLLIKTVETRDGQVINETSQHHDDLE
UniProt P06536: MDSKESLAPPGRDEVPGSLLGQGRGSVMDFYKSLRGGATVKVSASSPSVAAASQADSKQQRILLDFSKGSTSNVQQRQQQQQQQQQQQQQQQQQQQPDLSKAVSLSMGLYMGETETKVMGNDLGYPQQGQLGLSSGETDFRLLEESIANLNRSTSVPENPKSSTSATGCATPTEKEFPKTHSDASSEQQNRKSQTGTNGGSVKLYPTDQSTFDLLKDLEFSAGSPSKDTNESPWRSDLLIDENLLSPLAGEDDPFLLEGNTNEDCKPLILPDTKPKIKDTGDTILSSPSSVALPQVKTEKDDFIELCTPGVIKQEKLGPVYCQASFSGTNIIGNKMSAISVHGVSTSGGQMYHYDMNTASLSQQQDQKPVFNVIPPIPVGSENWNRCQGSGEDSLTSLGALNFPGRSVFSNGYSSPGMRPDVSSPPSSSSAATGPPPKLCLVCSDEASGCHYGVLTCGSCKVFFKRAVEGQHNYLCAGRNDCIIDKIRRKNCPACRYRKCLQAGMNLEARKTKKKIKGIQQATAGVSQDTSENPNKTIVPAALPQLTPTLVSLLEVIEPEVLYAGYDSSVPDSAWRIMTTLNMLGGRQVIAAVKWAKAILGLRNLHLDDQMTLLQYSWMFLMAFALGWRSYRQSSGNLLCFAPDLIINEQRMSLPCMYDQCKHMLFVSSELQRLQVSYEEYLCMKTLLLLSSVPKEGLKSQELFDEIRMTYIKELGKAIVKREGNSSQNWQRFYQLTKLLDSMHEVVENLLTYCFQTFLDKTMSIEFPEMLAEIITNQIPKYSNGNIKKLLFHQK
UniProt P63018: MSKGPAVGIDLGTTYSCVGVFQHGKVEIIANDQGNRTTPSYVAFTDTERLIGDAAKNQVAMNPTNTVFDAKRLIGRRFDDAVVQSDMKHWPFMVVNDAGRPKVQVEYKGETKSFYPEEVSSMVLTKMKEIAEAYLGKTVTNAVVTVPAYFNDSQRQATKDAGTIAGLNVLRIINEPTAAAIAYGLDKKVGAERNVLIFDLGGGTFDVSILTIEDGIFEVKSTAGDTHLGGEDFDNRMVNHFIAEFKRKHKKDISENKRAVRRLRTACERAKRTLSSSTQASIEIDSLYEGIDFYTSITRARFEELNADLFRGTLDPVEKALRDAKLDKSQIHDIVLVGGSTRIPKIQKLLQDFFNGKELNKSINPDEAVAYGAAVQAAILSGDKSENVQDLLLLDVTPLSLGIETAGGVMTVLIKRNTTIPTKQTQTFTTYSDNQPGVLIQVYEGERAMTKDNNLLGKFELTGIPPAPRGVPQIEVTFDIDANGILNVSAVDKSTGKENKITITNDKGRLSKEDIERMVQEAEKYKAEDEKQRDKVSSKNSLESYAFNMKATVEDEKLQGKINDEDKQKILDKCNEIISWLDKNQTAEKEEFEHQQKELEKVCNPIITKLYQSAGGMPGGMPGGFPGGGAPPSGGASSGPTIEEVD

What was measured:
[1] = biological target: vimentin (rat (endogenous in C6D8)) (UniProt P31000); experiment: co-IP; immunoprecipitation with monoclonal anti-vimentin V9 from the cytoskeleton fraction of C6D8 cells; blot for GR, vimentin and lamin B; control IP with an antibody to measles virus protein
[2] = biological target: glucocorticoid receptor (rat (endogenous in C6D8 and C6D10)) (UniProt P06536); experiment: co-IP; immunoprecipitation of GR from the detergent soluble fraction (supernatant lysis buffer); blots for HSC70 and HSP90
[3] = biological target: glucocorticoid receptor (rat (endogenous in C6D8 and C6D10)) (UniProt P06536); experiment: co-IP; immunoprecipitation of GR from the cytoskeleton fraction of anchoring competent cells; blots for nestin, tubulin, HSC70 and HSP90

| binding [1] | binding [2] | binding [3] | Substance |
| --- | --- | --- | --- |
| binds | – | – | glucocorticoid receptor (from UniProt P06536 1-795) |
| – | binds | binds | HSC70 (from UniProt P63018 1-646) |
